No constants are given. Whether binding was seen depends on the method and setting. Some binding calls cover weakened binding; strength is not graded here.
Tests used:
integrin αVβ5 = target: T1, integrin αVβ5 (UniProt P06756 31-992; P18084 24-719); assay: ELISA, coated integrin, anti-MICA-HRP
T1 construct: Coated on the ELISA plate

Protein sequences, listed by entry. Tags and fused reporters are not part of them. Lines headed by an entry give the natural chain unless they say otherwise; changes in a name come on top.
UniProt P06756: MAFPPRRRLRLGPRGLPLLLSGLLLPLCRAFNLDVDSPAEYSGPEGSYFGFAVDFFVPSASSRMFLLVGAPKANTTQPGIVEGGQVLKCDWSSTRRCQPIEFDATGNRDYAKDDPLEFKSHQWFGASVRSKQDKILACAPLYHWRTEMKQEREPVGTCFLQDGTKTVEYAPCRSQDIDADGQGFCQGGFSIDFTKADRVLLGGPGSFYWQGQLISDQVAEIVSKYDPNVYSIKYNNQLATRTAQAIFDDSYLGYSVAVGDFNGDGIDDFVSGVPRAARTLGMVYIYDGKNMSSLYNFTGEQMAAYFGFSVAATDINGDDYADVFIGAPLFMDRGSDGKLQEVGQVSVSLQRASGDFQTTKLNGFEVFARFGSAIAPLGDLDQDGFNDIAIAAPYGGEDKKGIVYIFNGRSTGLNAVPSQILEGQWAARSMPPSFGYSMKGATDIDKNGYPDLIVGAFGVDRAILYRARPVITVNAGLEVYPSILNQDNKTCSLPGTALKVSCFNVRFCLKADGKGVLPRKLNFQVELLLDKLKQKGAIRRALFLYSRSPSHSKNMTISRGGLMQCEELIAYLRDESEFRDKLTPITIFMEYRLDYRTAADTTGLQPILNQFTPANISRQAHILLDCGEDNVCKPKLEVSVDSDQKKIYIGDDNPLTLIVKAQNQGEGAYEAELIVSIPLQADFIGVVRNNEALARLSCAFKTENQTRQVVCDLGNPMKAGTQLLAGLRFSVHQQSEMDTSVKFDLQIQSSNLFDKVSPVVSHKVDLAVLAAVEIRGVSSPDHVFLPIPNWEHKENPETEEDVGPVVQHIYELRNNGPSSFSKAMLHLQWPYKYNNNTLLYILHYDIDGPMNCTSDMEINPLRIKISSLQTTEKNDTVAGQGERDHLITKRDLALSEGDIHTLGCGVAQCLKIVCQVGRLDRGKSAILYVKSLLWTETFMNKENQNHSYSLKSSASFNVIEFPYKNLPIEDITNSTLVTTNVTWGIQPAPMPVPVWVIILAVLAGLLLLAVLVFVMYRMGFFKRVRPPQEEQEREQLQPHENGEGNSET

integrin αVβ3 = target: T2, integrin αVβ3 (UniProt P06756 31-992; P05106 27-718); assay: ELISA, coated integrin, anti-MICA-HRP
T2 construct: Coated on the ELISA plate

binding (integrin αVβ5)	binding (integrin αVβ3)	Binder
binds	binds	soluble MICA generated from pKK48 (loop 3 insert extended 3.2sp) (designed binder, From pSW276 (no N-terminal His tag, Lys125); secreted by 293T cells; also called 3-3.2sp) EPHSLRYNLTVLSWDGSVQSGFLTEVHLDGQPFLRCDRQKCRAKPQGQWAEDVLGNKTWDRETRDLTGNGKDLRMTLAHIKDQKEGLHSLQEIRVCEIHEDNSTRSSQHFYYDGELFLSQNLETKEWTMPQSSRAQTLAMNVRNFLKEDAMKTKTHYHAMHADCLQELRRYLKSGVVLRRTVPPMVNVTRSEASEGNITVTCRASGFYPWNITLSWRQDGVSLSHDTQQWGDVLPDGNGTYQTWVATRISGGSGGGSTSRGDHPRTQSGGSGGGCYMEHSGNHSTHPVPSGK
binds	binds	soluble MICA generated from pKK49 (loop 3 insert extended 3.3sp) (designed binder, From pSW276 (no N-terminal His tag, Lys125); secreted by 293T cells; also called 3-3.3sp) EPHSLRYNLTVLSWDGSVQSGFLTEVHLDGQPFLRCDRQKCRAKPQGQWAEDVLGNKTWDRETRDLTGNGKDLRMTLAHIKDQKEGLHSLQEIRVCEIHEDNSTRSSQHFYYDGELFLSQNLETKEWTMPQSSRAQTLAMNVRNFLKEDAMKTKTHYHAMHADCLQELRRYLKSGVVLRRTVPPMVNVTRSEASEGNITVTCRASGFYPWNITLSWRQDGVSLSHDTQQWGDVLPDGNGTYQTWVATRISGGSGGGSRVPRGDSDLTSGGSGGGCYMEHSGNHSTHPVPSGK
binds	binds	soluble MICA generated from pKK36 (loop 1 insert 3.1) (designed binder, From pKK34 (His6, Glu125); secreted by 293T cells; also called 1-3.1) HHHHHHEPHSLRYNLTVLSWDGSVQSGFLTEVHLDGQPFLRCDRQKCRAKPQGQWAEDVLGNKTWDRETRDLTGNGKDLRMTLAHIKDQKEGLHSLQEIRVCEIHEDNSTRSSQHFYYDGELFLSQNLETEEWTMPQSSRAQTLAMNVRNFLKEDAMKTKTHYHAMHADCLQELRRYLKSGVVLRRTVPPMVNVTSRGDHPRTQVTCRASGFYPWNITLSWRQDGVSLSHDTQQWGDVLPDGNGTYQTWVATRICQGEEQRFTCYMEHSGNHSTHPVPSGK
binds	binds	soluble MICA generated from pKK41 (loop 1 insert 5.2) (designed binder, From pKK34 (His6, Glu125); secreted by 293T cells; also called 1-5.2) HHHHHHEPHSLRYNLTVLSWDGSVQSGFLTEVHLDGQPFLRCDRQKCRAKPQGQWAEDVLGNKTWDRETRDLTGNGKDLRMTLAHIKDQKEGLHSLQEIRVCEIHEDNSTRSSQHFYYDGELFLSQNLETEEWTMPQSSRAQTLAMNVRNFLKEDAMKTKTHYHAMHADCLQELRRYLKSGVVLRRTVPPMVNVTRGDTFTQSVTCRASGFYPWNITLSWRQDGVSLSHDTQQWGDVLPDGNGTYQTWVATRICQGEEQRFTCYMEHSGNHSTHPVPSGK
binds	binds	soluble MICA generated from pKK128 (loop 1 extended 5.1sp, loop 3 extended 3.2sp) (designed binder, From pKK115 (from pKK46: His6, Glu125); secreted by 293T cells; also called 1-5.1sp/3-3.2sp) HHHHHHEPHSLRYNLTVLSWDGSVQSGFLTEVHLDGQPFLRCDRQKCRAKPQGQWAEDVLGNKTWDRETRDLTGNGKDLRMTLAHIKDQKEGLHSLQEIRVCEIHEDNSTRSSQHFYYDGELFLSQNLETEEWTMPQSSRAQTLAMNVRNFLKEDAMKTKTHYHAMHADCLQELRRYLKSGVVLRRTVPPMVNVTSGGSGGGSVTRGDTFTQSSGGSGGGVTCRASGFYPWNITLSWRQDGVSLSHDTQQWGDVLPDGNGTYQTWVATRISGGSGGGSTSRGDHPRTQSGGSGGGCYMEHSGNHSTHPVPSGK
binds	binds	soluble MICA generated from pKK129 (loop 1 extended 5.1sp, loop 3 extended 5.1sp) (designed binder) HHHHHHEPHSLRYNLTVLSWDGSVQSGFLTEVHLDGQPFLRCDRQKCRAKPQGQWAEDVLGNKTWDRETRDLTGNGKDLRMTLAHIKDQKEGLHSLQEIRVCEIHEDNSTRSSQHFYYDGELFLSQNLETEEWTMPQSSRAQTLAMNVRNFLKEDAMKTKTHYHAMHADCLQELRRYLKSGVVLRRTVPPMVNVTSGGSGGGSVTRGDTFTQSSGGSGGGVTCRASGFYPWNITLSWRQDGVSLSHDTQQWGDVLPDGNGTYQTWVATRISGGSGGGSVTRGDTFTQSSGGSGGGCYMEHSGNHSTHPVPSGK
binds	binds	soluble MICA generated from pKK131 (loop 1 extended 5.1sp, loop 3 extended 5.1spNH) (designed binder) HHHHHHEPHSLRYNLTVLSWDGSVQSGFLTEVHLDGQPFLRCDRQKCRAKPQGQWAEDVLGNKTWDRETRDLTGNGKDLRMTLAHIKDQKEGLHSLQEIRVCEIHEDNSTRSSQHFYYDGELFLSQNLETEEWTMPQSSRAQTLAMNVRNFLKEDAMKTKTHYHAMHADCLQELRRYLKSGVVLRRTVPPMVNVTSGGSGGGSVTRGDTFTQSSGGSGGGVTCRASGFYPWNITLSWRQDGVSLSHDTQQWGDVLPDGNGTYQTWVATRISGGSGGGSVTRGDTFTQSSGGSGGGCYMEHSGNHSTHPVPSGK
binds	binds	soluble MICA generated from pKK130 (loop 1 extended 5.1sp, loop 3 extended 5.3sp) (designed binder, From pKK115 (from pKK46: His6, Glu125); secreted by 293T cells; also called 1-5.1sp/3-5.3sp) HHHHHHEPHSLRYNLTVLSWDGSVQSGFLTEVHLDGQPFLRCDRQKCRAKPQGQWAEDVLGNKTWDRETRDLTGNGKDLRMTLAHIKDQKEGLHSLQEIRVCEIHEDNSTRSSQHFYYDGELFLSQNLETEEWTMPQSSRAQTLAMNVRNFLKEDAMKTKTHYHAMHADCLQELRRYLKSGVVLRRTVPPMVNVTSGGSGGGSVTRGDTFTQSSGGSGGGVTCRASGFYPWNITLSWRQDGVSLSHDTQQWGDVLPDGNGTYQTWVATRISGGSGGGSHLARGDDLTYSGGSGGGCYMEHSGNHSTHPVPSGK
binds	binds	soluble MICA generated from pKK37 (loop 1 insert 3.2) (designed binder, From pKK34 (His6, Glu125); secreted by 293T cells; also called 1-3.2) HHHHHHEPHSLRYNLTVLSWDGSVQSGFLTEVHLDGQPFLRCDRQKCRAKPQGQWAEDVLGNKTWDRETRDLTGNGKDLRMTLAHIKDQKEGLHSLQEIRVCEIHEDNSTRSSQHFYYDGELFLSQNLETEEWTMPQSSRAQTLAMNVRNFLKEDAMKTKTHYHAMHADCLQELRRYLKSGVVLRRTVPPMVNVTRTSRGDHPRTQVTCRASGFYPWNITLSWRQDGVSLSHDTQQWGDVLPDGNGTYQTWVATRICQGEEQRFTCYMEHSGNHSTHPVPSGK
binds	binds	soluble MICA generated from pKK44 (loop 1 insert extended 3.2sp) (designed binder, From pKK34 (His6, Glu125); secreted by 293T cells; also called 1-3.2sp) HHHHHHEPHSLRYNLTVLSWDGSVQSGFLTEVHLDGQPFLRCDRQKCRAKPQGQWAEDVLGNKTWDRETRDLTGNGKDLRMTLAHIKDQKEGLHSLQEIRVCEIHEDNSTRSSQHFYYDGELFLSQNLETEEWTMPQSSRAQTLAMNVRNFLKEDAMKTKTHYHAMHADCLQELRRYLKSGVVLRRTVPPMVNVTSGGSGGGSTSRGDHPRTQSGGSGGGVTCRASGFYPWNITLSWRQDGVSLSHDTQQWGDVLPDGNGTYQTWVATRICQGEEQRFTCYMEHSGNHSTHPVPSGK
binds	binds	soluble MICA generated from pKK45 (loop 1 insert extended 3.3sp) (designed binder, From pKK34 (His6, Glu125); secreted by 293T cells; also called 1-3.3sp) HHHHHHEPHSLRYNLTVLSWDGSVQSGFLTEVHLDGQPFLRCDRQKCRAKPQGQWAEDVLGNKTWDRETRDLTGNGKDLRMTLAHIKDQKEGLHSLQEIRVCEIHEDNSTRSSQHFYYDGELFLSQNLETEEWTMPQSSRAQTLAMNVRNFLKEDAMKTKTHYHAMHADCLQELRRYLKSGVVLRRTVPPMVNVTSGGSGGGSRVPRGDSDLTSGGSGGGVTCRASGFYPWNITLSWRQDGVSLSHDTQQWGDVLPDGNGTYQTWVATRICQGEEQRFTCYMEHSGNHSTHPVPSGK
binds	binds	soluble MICA generated from pKK47 (loop 1 insert extended 5.3sp) (designed binder, From pKK34 (His6, Glu125); secreted by 293T cells; also called 1-5.3sp) HHHHHHEPHSLRYNLTVLSWDGSVQSGFLTEVHLDGQPFLRCDRQKCRAKPQGQWAEDVLGNKTWDRETRDLTGNGKDLRMTLAHIKDQKEGLHSLQEIRVCEIHEDNSTRSSQHFYYDGELFLSQNLETEEWTMPQSSRAQTLAMNVRNFLKEDAMKTKTHYHAMHADCLQELRRYLKSGVVLRRTVPPMVNVTSGGSGGGSHLARGDDLTYSGGSGGGVTCRASGFYPWNITLSWRQDGVSLSHDTQQWGDVLPDGNGTYQTWVATRICQGEEQRFTCYMEHSGNHSTHPVPSGK
binds	binds	soluble MICA generated from pKK46 (loop 1 insert extended 5.1sp) (designed binder, From pKK34 (His6, Glu125); secreted by 293T cells; also called 1-5.1sp) HHHHHHEPHSLRYNLTVLSWDGSVQSGFLTEVHLDGQPFLRCDRQKCRAKPQGQWAEDVLGNKTWDRETRDLTGNGKDLRMTLAHIKDQKEGLHSLQEIRVCEIHEDNSTRSSQHFYYDGELFLSQNLETEEWTMPQSSRAQTLAMNVRNFLKEDAMKTKTHYHAMHADCLQELRRYLKSGVVLRRTVPPMVNVTSGGSGGGSVTRGDTFTQSSGGSGGGVTCRASGFYPWNITLSWRQDGVSLSHDTQQWGDVLPDGNGTYQTWVATRICQGEEQRFTCYMEHSGNHSTHPVPSGK
binds	binds	soluble MICA generated from pKK38 (loop 1 insert 3.3) (designed binder, From pKK34 (His6, Glu125); secreted by 293T cells; also called 1-3.3) HHHHHHEPHSLRYNLTVLSWDGSVQSGFLTEVHLDGQPFLRCDRQKCRAKPQGQWAEDVLGNKTWDRETRDLTGNGKDLRMTLAHIKDQKEGLHSLQEIRVCEIHEDNSTRSSQHFYYDGELFLSQNLETEEWTMPQSSRAQTLAMNVRNFLKEDAMKTKTHYHAMHADCLQELRRYLKSGVVLRRTVPPMVNVTRVPRGDSDLTVTCRASGFYPWNITLSWRQDGVSLSHDTQQWGDVLPDGNGTYQTWVATRICQGEEQRFTCYMEHSGNHSTHPVPSGK
binds	binds	soluble MICA generated from pKK39 (loop 1 insert 3.4) (designed binder, From pKK34 (His6, Glu125); secreted by 293T cells; also called 1-3.4) HHHHHHEPHSLRYNLTVLSWDGSVQSGFLTEVHLDGQPFLRCDRQKCRAKPQGQWAEDVLGNKTWDRETRDLTGNGKDLRMTLAHIKDQKEGLHSLQEIRVCEIHEDNSTRSSQHFYYDGELFLSQNLETEEWTMPQSSRAQTLAMNVRNFLKEDAMKTKTHYHAMHADCLQELRRYLKSGVVLRRTVPPMVNVTRSARGDSDHRVTCRASGFYPWNITLSWRQDGVSLSHDTQQWGDVLPDGNGTYQTWVATRICQGEEQRFTCYMEHSGNHSTHPVPSGK
binds	binds	soluble MICA generated from pKK42 (loop 1 insert 5.3) (designed binder, From pKK34 (His6, Glu125); secreted by 293T cells; also called 1-5.3) HHHHHHEPHSLRYNLTVLSWDGSVQSGFLTEVHLDGQPFLRCDRQKCRAKPQGQWAEDVLGNKTWDRETRDLTGNGKDLRMTLAHIKDQKEGLHSLQEIRVCEIHEDNSTRSSQHFYYDGELFLSQNLETEEWTMPQSSRAQTLAMNVRNFLKEDAMKTKTHYHAMHADCLQELRRYLKSGVVLRRTVPPMVNVTHLARGDDLTYVTCRASGFYPWNITLSWRQDGVSLSHDTQQWGDVLPDGNGTYQTWVATRICQGEEQRFTCYMEHSGNHSTHPVPSGK
binds	binds	soluble MICA generated from pKK40 (loop 1 insert 5.1) (designed binder, From pKK34 (His6, Glu125); secreted by 293T cells; also called 1-5.1) HHHHHHEPHSLRYNLTVLSWDGSVQSGFLTEVHLDGQPFLRCDRQKCRAKPQGQWAEDVLGNKTWDRETRDLTGNGKDLRMTLAHIKDQKEGLHSLQEIRVCEIHEDNSTRSSQHFYYDGELFLSQNLETEEWTMPQSSRAQTLAMNVRNFLKEDAMKTKTHYHAMHADCLQELRRYLKSGVVLRRTVPPMVNVTVTRGDTFTQSVTCRASGFYPWNITLSWRQDGVSLSHDTQQWGDVLPDGNGTYQTWVATRICQGEEQRFTCYMEHSGNHSTHPVPSGK

From patent US20150165065A1 (AVIDBIOTICS, published 2015)
